This note sets out measurements from PMC9411159.

Experiment [1] deals with T1, Flag-tagged ARID3A (UniProt Q99856).
T1 sequence: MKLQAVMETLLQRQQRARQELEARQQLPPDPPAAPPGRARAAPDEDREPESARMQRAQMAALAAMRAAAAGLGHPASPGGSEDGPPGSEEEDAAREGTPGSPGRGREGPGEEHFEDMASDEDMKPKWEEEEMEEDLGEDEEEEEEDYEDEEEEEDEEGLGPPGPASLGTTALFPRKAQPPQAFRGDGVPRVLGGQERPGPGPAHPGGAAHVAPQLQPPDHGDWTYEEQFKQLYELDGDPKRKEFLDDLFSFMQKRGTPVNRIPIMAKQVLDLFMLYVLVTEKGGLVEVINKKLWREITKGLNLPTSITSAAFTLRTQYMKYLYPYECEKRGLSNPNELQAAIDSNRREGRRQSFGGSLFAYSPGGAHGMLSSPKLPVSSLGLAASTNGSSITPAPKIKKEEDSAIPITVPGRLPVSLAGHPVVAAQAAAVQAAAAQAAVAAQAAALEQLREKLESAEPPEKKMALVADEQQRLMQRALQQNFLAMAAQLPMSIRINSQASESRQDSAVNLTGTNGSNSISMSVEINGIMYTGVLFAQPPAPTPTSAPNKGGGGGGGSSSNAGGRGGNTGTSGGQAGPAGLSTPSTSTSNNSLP
Briefly: co-IP; Huh7 and HEK-293T cells transfected with Flag-tagged ARID3A and HA-tagged CEP131; capture with anti-Flag antibody.

In experiment [2] the target is T2, AT-rich interacting domain 3A (ARID3A) (human (endogenous in Huh7)) (UniProt Q99856).
T2 sequence: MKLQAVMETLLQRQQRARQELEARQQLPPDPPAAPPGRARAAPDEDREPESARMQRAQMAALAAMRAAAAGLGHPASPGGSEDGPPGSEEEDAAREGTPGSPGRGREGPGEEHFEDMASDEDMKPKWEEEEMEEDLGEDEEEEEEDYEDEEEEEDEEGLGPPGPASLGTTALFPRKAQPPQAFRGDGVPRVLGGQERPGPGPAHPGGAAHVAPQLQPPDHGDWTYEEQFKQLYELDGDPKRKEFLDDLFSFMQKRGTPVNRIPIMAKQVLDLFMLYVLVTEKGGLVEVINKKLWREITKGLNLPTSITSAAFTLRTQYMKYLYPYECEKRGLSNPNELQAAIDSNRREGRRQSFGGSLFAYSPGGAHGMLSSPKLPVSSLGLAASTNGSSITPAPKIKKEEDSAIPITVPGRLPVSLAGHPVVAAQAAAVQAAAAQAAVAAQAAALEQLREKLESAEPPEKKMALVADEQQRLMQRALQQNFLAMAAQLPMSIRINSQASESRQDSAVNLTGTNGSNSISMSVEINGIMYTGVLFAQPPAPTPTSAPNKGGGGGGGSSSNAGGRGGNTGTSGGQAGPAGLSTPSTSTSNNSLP
As to the kind of experiment: co-IP; endogenous proteins in Huh7 cells; capture with anti-ARID3A antibody and, in reverse, with anti-CEP131 antibody.

In experiment [3] the target is T3, centrosomal protein 131 kDa (CEP131) (human (endogenous in Huh7)) (UniProt Q9UPN4).
T3 sequence: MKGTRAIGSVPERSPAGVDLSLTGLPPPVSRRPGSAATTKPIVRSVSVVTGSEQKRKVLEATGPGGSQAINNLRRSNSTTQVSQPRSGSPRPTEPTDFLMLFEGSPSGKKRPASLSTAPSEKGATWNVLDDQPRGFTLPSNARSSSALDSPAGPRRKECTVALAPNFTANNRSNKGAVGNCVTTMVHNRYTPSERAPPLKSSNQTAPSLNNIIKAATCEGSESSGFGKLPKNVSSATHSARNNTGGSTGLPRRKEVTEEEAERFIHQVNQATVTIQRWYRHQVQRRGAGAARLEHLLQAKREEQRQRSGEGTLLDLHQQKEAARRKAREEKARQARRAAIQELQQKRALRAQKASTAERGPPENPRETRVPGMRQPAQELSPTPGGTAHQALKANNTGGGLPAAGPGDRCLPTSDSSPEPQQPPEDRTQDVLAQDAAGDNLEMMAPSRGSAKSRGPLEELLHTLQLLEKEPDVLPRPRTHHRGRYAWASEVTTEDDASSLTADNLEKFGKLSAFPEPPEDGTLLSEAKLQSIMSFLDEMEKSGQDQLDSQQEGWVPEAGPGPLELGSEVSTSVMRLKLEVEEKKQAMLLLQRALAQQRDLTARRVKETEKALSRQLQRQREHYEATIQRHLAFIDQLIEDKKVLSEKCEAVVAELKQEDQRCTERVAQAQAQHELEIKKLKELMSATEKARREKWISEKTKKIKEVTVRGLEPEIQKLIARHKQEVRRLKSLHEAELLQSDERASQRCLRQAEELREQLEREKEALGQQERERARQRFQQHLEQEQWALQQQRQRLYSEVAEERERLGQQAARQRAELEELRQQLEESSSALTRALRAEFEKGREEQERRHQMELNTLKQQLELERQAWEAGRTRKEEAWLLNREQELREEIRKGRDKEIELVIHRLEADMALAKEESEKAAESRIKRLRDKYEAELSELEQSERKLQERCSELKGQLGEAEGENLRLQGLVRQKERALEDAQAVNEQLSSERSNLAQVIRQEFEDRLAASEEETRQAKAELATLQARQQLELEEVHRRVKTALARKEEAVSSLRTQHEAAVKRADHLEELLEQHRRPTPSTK
The description is as above.

Results are given in words; binding and its absence hold for the method and conditions named. In cells and extracts the contact can be indirect. Some results given as binding are weak or reduced against the parent protein; the word gives no strength. For part of these data: Tags and fused reporters may be left off the sequences shown.

B1: HA-tagged CEP131 (protein, UniProt Q9UPN4 1-1083)
chain: MKGTRAIGSVPERSPAGVDLSLTGLPPPVSRRPGSAATTKPIVRSVSVVTGSEQKRKVLEATGPGGSQAINNLRRSNSTTQVSQPRSGSPRPTEPTDFLMLFEGSPSGKKRPASLSTAPSEKGATWNVLDDQPRGFTLPSNARSSSALDSPAGPRRKECTVALAPNFTANNRSNKGAVGNCVTTMVHNRYTPSERAPPLKSSNQTAPSLNNIIKAATCEGSESSGFGKLPKNVSSATHSARNNTGGSTGLPRRKEVTEEEAERFIHQVNQATVTIQRWYRHQVQRRGAGAARLEHLLQAKREEQRQRSGEGTLLDLHQQKEAARRKAREEKARQARRAAIQELQQKRALRAQKASTAERGPPENPRETRVPGMRQPAQELSPTPGGTAHQALKANNTGGGLPAAGPGDRCLPTSDSSPEPQQPPEDRTQDVLAQDAAGDNLEMMAPSRGSAKSRGPLEELLHTLQLLEKEPDVLPRPRTHHRGRYAWASEVTTEDDASSLTADNLEKFGKLSAFPEPPEDGTLLSEAKLQSIMSFLDEMEKSGQDQLDSQQEGWVPEAGPGPLELGSEVSTSVMRLKLEVEEKKQAMLLLQRALAQQRDLTARRVKETEKALSRQLQRQREHYEATIQRHLAFIDQLIEDKKVLSEKCEAVVAELKQEDQRCTERVAQAQAQHELEIKKLKELMSATEKARREKWISEKTKKIKEVTVRGLEPEIQKLIARHKQEVRRLKSLHEAELLQSDERASQRCLRQAEELREQLEREKEALGQQERERARQRFQQHLEQEQWALQQQRQRLYSEVAEERERLGQQAARQRAELEELRQQLEESSSALTRALRAEFEKGREEQERRHQMELNTLKQQLELERQAWEAGRTRKEEAWLLNREQELREEIRKGRDKEIELVIHRLEADMALAKEESEKAAESRIKRLRDKYEAELSELEQSERKLQERCSELKGQLGEAEGENLRLQGLVRQKERALEDAQAVNEQLSSERSNLAQVIRQEFEDRLAASEEETRQAKAELATLQARQQLELEEVHRRVKTALARKEEAVSSLRTQHEAAVKRADHLEELLEQHRRPTPSTK
B1: the binding result in experiment [1] was “binds”.

B2: centrosomal protein 131 kDa (CEP131) (protein, UniProt Q9UPN4 1-1083)
chain: MKGTRAIGSVPERSPAGVDLSLTGLPPPVSRRPGSAATTKPIVRSVSVVTGSEQKRKVLEATGPGGSQAINNLRRSNSTTQVSQPRSGSPRPTEPTDFLMLFEGSPSGKKRPASLSTAPSEKGATWNVLDDQPRGFTLPSNARSSSALDSPAGPRRKECTVALAPNFTANNRSNKGAVGNCVTTMVHNRYTPSERAPPLKSSNQTAPSLNNIIKAATCEGSESSGFGKLPKNVSSATHSARNNTGGSTGLPRRKEVTEEEAERFIHQVNQATVTIQRWYRHQVQRRGAGAARLEHLLQAKREEQRQRSGEGTLLDLHQQKEAARRKAREEKARQARRAAIQELQQKRALRAQKASTAERGPPENPRETRVPGMRQPAQELSPTPGGTAHQALKANNTGGGLPAAGPGDRCLPTSDSSPEPQQPPEDRTQDVLAQDAAGDNLEMMAPSRGSAKSRGPLEELLHTLQLLEKEPDVLPRPRTHHRGRYAWASEVTTEDDASSLTADNLEKFGKLSAFPEPPEDGTLLSEAKLQSIMSFLDEMEKSGQDQLDSQQEGWVPEAGPGPLELGSEVSTSVMRLKLEVEEKKQAMLLLQRALAQQRDLTARRVKETEKALSRQLQRQREHYEATIQRHLAFIDQLIEDKKVLSEKCEAVVAELKQEDQRCTERVAQAQAQHELEIKKLKELMSATEKARREKWISEKTKKIKEVTVRGLEPEIQKLIARHKQEVRRLKSLHEAELLQSDERASQRCLRQAEELREQLEREKEALGQQERERARQRFQQHLEQEQWALQQQRQRLYSEVAEERERLGQQAARQRAELEELRQQLEESSSALTRALRAEFEKGREEQERRHQMELNTLKQQLELERQAWEAGRTRKEEAWLLNREQELREEIRKGRDKEIELVIHRLEADMALAKEESEKAAESRIKRLRDKYEAELSELEQSERKLQERCSELKGQLGEAEGENLRLQGLVRQKERALEDAQAVNEQLSSERSNLAQVIRQEFEDRLAASEEETRQAKAELATLQARQQLELEEVHRRVKTALARKEEAVSSLRTQHEAAVKRADHLEELLEQHRRPTPSTK
Consider B2, for which, in experiment [2], the binding result is “binds”.

B3: AT-rich interacting domain 3A (ARID3A) (protein, UniProt Q99856 1-593)
chain: MKLQAVMETLLQRQQRARQELEARQQLPPDPPAAPPGRARAAPDEDREPESARMQRAQMAALAAMRAAAAGLGHPASPGGSEDGPPGSEEEDAAREGTPGSPGRGREGPGEEHFEDMASDEDMKPKWEEEEMEEDLGEDEEEEEEDYEDEEEEEDEEGLGPPGPASLGTTALFPRKAQPPQAFRGDGVPRVLGGQERPGPGPAHPGGAAHVAPQLQPPDHGDWTYEEQFKQLYELDGDPKRKEFLDDLFSFMQKRGTPVNRIPIMAKQVLDLFMLYVLVTEKGGLVEVINKKLWREITKGLNLPTSITSAAFTLRTQYMKYLYPYECEKRGLSNPNELQAAIDSNRREGRRQSFGGSLFAYSPGGAHGMLSSPKLPVSSLGLAASTNGSSITPAPKIKKEEDSAIPITVPGRLPVSLAGHPVVAAQAAAVQAAAAQAAVAAQAAALEQLREKLESAEPPEKKMALVADEQQRLMQRALQQNFLAMAAQLPMSIRINSQASESRQDSAVNLTGTNGSNSISMSVEINGIMYTGVLFAQPPAPTPTSAPNKGGGGGGGSSSNAGGRGGNTGTSGGQAGPAGLSTPSTSTSNNSLP
On to B3, for which, in experiment [3], the binding result is “binds”.
